From patent publication US4749782A (Smithkline Beckman Corporation, priority 1986, dated 1988)

Assay: general procedure: Boc solid-phase peptide synthesis; BHA-resin; Gly-OCH2-phi-resin; DCC with HOBT; DCC/DMAP for the position 1 acid
Conditions: whole synthesis, scale 0.83 mmol

## PEPTIDE1{[MprEt].[D-TyrEt].F.V.N.C.P.R.G.[am]}$PEPTIDE1,PEPTIDE1,1:R3-6:R3$$$V2.0
  crude mass: 580 mg

HELM strings list residues between dots; [ac] is acetyl, [am] amide, other brackets name non-standard units.
